In paper PMC8576121:
Results are given in words; binding and its absence hold for the method and conditions named. Binding seen in cells or lysates may run through a third protein. These calls come from enrichment with a bait or labelling near it, and not all partners need be listed. No binding means not detected with the bait.

Experiments:
Assay in all cases: affinity purification with mass spectrometry; N-His6 bait overproduced in H. volcanii; cytoplasmic extract on nickel chelating sepharose at room temperature in 2.1 M NaCl, 20 mM HEPES, 20 mM imidazole; four washes with 30 mM imidazole, elution with 700 mM imidazole; no RNase step, no cross-linking; co-isolated proteins identified by LC-MS/MS; three biological replicates; proteins found in the empty-vector or DHFR controls removed
[1] = biological target: T1, DNA-directed RNA polymerase subunit Rpo1N (Haloferax volcanii) (UniProt D4GZX6)
T1 sequence: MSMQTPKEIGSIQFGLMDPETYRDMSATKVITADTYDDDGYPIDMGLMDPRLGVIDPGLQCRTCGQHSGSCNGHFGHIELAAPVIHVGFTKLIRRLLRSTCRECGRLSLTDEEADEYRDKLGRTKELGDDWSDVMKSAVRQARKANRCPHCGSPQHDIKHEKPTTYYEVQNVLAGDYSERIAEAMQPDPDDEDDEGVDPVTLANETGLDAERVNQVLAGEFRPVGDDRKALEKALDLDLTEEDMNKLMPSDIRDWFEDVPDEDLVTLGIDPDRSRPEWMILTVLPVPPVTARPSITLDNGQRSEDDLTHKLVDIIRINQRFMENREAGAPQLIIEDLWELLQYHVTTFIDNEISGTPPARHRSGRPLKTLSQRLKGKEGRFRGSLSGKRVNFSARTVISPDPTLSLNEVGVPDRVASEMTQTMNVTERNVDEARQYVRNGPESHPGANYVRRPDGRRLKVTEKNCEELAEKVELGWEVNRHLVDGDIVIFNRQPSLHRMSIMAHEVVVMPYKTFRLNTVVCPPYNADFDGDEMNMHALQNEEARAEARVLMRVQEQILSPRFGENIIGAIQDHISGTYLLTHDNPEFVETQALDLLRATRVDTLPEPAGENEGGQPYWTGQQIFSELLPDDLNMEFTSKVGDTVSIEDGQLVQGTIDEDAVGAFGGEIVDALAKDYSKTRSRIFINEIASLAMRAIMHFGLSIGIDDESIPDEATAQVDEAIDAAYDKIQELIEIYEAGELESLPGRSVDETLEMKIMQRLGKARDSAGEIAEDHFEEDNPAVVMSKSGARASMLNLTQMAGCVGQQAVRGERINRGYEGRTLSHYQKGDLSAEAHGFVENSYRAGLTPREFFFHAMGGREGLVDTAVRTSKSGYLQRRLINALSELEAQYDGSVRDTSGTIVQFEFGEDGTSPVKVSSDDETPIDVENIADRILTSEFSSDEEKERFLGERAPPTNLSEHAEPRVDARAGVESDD

[2] = biological target: T2, DNA-directed RNA polymerase subunit Rpo5 (Haloferax volcanii) (UniProt D4GZX3)
T2 sequence: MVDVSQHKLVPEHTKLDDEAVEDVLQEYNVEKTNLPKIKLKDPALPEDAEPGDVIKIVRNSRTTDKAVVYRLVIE

[3] = biological target: T3, DNA-directed RNA polymerase subunit Rpo1C (Haloferax volcanii) (UniProt D4GZX7)
T3 sequence: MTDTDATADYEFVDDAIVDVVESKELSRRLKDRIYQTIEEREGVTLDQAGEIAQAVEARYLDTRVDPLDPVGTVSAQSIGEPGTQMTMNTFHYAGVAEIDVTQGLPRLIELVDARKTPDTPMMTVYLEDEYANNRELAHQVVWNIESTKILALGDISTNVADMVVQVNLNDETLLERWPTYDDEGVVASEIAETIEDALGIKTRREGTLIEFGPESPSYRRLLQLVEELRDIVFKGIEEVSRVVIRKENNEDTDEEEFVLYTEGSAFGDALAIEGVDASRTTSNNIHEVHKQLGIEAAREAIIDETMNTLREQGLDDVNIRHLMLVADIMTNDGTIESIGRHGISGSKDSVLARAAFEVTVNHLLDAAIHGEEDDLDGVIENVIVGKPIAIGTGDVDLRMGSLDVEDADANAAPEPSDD

[4] = biological target: T4, DNA-directed RNA polymerase subunit Rpo3 (Haloferax volcanii) (UniProt D4GWY4)
T4 sequence: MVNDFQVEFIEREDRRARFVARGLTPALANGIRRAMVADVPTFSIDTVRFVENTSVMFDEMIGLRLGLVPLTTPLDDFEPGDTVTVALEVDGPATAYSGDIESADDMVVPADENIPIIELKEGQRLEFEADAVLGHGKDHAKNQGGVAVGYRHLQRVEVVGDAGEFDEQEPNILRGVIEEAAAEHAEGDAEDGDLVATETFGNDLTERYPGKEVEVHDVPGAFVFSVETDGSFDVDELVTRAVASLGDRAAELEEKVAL

[5] = biological target: T5, DNA-directed RNA polymerase subunit Rpo11 (Haloferax volcanii) (UniProt D4GVL8)
T5 sequence: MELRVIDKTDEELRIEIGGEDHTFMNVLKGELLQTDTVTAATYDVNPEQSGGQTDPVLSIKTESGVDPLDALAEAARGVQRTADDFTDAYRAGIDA

[6] = biological target: T6, DNA-directed RNA polymerase subunit Rpo2N (Haloferax volcanii) (UniProt D4GZX4)
T6 sequence: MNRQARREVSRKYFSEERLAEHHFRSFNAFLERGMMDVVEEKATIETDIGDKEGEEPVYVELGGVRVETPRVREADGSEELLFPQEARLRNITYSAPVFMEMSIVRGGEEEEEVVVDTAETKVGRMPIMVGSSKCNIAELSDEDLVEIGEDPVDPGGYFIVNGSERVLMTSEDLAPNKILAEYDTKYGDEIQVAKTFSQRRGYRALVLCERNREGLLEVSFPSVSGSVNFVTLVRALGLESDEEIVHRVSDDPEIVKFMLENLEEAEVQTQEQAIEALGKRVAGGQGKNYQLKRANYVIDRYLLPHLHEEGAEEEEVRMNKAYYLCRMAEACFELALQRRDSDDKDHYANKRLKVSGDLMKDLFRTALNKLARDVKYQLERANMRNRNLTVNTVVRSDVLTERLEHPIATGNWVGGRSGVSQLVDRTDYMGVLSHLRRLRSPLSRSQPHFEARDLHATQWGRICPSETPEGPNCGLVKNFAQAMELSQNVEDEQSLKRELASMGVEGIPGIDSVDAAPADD

[7] = biological target: T7, ribose-1,5-bisphosphate isomerase (proposed new name aIF2Bα) (Haloferax volcanii) (UniProt D4GV73)
T7 sequence: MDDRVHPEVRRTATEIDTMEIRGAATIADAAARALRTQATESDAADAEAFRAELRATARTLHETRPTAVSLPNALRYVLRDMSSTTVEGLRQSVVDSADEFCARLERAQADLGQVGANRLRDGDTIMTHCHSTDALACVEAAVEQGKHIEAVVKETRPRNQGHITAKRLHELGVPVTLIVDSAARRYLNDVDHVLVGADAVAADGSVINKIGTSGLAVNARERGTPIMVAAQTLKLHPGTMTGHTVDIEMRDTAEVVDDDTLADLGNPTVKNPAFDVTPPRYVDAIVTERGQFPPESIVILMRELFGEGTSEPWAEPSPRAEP

Substance | binding [1] | binding [2] | binding [3] | binding [4] | binding [5] | binding [6] | binding [7]
NusG | no binding | no binding | no binding | no binding | no binding | no binding | –
NusA | no binding | no binding | no binding | no binding | no binding | no binding | –
AMP phosphorylase (HVO_0965) (enzyme) | – | – | – | – | – | – | no binding

Now from value to substance:

binding [1] | binding [2] | binding [3] | binding [4] | binding [5] | binding [6] | binding [7] | Substance
no binding | no binding | no binding | no binding | no binding | no binding | – | RNA polymerase auxiliary subunit RpoE
– | – | – | – | – | – | no binding | ribulose-1,5-bisphosphate carboxylase/oxygenase (HVO_0970) (enzyme)
